Source: PubChem BioAssay AID248 (DTP/NCI, 2004)
The list is a part of this screen's results and no random one: it is rich in T/C values a quarter to a half above the control, in often repeated tests (any T/C) and in doses without a T/C. Other doses and runs of a compound stand elsewhere. T/C gives the treated animals as a percentage of the vehicle group. Some entries give survivors of the animals treated and no T/C: the source files T/C as zero there, which appears to mark a toxic dose or a test without result, not a measured value. Some doses without a T/C left all or most animals alive at the check, yet need not have been tolerated: survival well below the control is almost never listed, so the zero probably covers shortened survival too. Survivors were counted at the toxicity check, usually on the fifth day, unless a day is given; later deaths do not show. Schedule codes are those of the source, read here as Q, the interval in days (D) or hours (H), X, the number of doses. Some molecules as drawn cover several salts, stereoisomers or complexes of the source; a dose is that of the sample tested. Some entries were tested several times; the values are given in rising order. For survival time, this PubChem deposit counts one and a half times the control or more as active, and values a quarter to a half above the control carry no call in these data; other NCI protocols may use other cut-offs.

Tested on: L1210 leukemia ip in BDF1 mice, survival T/C
Assay: NCI In Vivo Anticancer Drug Screen. Data for tumor model L1210 Leukemia (intraperitoneal) in B6D2F1 (BDF1) mice
Conditions: T/C endpoint: mean survival time, higher T/C = longer survival
[1] = dose: 400.0 mg/kg/injection, schedule: Q01DX001 (ip), vehicle: carboxymethylcellulose (CMC)
[2] = dose: 400.0 mg/kg/injection, schedule: Q01DX009 (ip), vehicle: Klucel (hydroxypropylcellulose) (HPC)

`O=C(O)c1ccc(SSc2ccc(C(=O)O)cc2)cc1` was tested, and the T/C (dose: 100.0 mg/kg/injection, schedule: Q04DX002 (ip), vehicle: carboxymethylcellulose (CMC)) was 91, 95, 98, 100 % of control, the survivor count (dose: 200.0 mg/kg/injection, schedule: Q01DX009 (ip), vehicle: carboxymethylcellulose (CMC)) was 2 of 3 and the survivor count (dose: 200.0 mg/kg/injection, schedule: Q04DX002 (ip), vehicle: carboxymethylcellulose (CMC)) was 2 of 3. The survivor count [1] was 0 of 3, the survivor count (dose: 400.0 mg/kg/injection, schedule: Q01DX009 (ip), vehicle: carboxymethylcellulose (CMC)) was 0 of 3 and the survivor count (dose: 400.0 mg/kg/injection, schedule: Q04DX002 (ip), vehicle: carboxymethylcellulose (CMC)) was 0 of 3 and 0 of 6.

For `COC(=O)C1=C(C(=O)OC)C2C=CC1C1(C)C(=O)N(C)C21C` (stereo unspecified), the survivor count (dose: 150.0 mg/kg/injection, schedule: Q04DX002 (ip), vehicle: Klucel (hydroxypropylcellulose) (HPC)) was 3 of 3.

For `CN(C)CCC(c1ccccc1)(c1ccccc1)c1ccccc1`, the survivor count [1] was 0 of 4.

`NNC(=O)OC12CC3CC(CC(C3)C1)C2` was tested, and the survivor count (dose: 150.0 mg/kg/injection, schedule: Q01DX009 (ip), vehicle: saline with Tween-80) was 3 of 6, the survivor count (dose: 200.0 mg/kg/injection, schedule: Q04DX003 (ip), vehicle: saline with Tween-80) was 3 of 6 and the survivor count (dose: 225.0 mg/kg/injection, schedule: Q01DX009 (ip), vehicle: saline with Tween-80) was 0 of 6. The survivor count (dose: 335.0 mg/kg/injection, schedule: Q01DX009 (ip), vehicle: saline with Tween-80) was 0 of 6 and the survivor count (dose: 400.0 mg/kg/injection, schedule: Q04DX003 (ip), vehicle: saline with Tween-80) was 0 of 6.

In the case of `Nc1ccccc1C(=O)c1ccccc1`, the survivor count (dose: 400.0 mg/kg/injection, schedule: Q01DX001 (ip), vehicle: Klucel (hydroxypropylcellulose) (HPC)) is reported as 3 of 6, the survivor count (dose: 400.0 mg/kg/injection, schedule: Q01DX009 (ip), vehicle: saline with Tween-80) is reported as 6 of 6 and the survivor count (dose: 400.0 mg/kg/injection, schedule: Q04DX003 (ip), vehicle: Klucel (hydroxypropylcellulose) (HPC)) is reported as 2 of 6.

In the case of `O=C(O)/C=C\Cl`, the survivor count (dose: 400.0 mg/kg/injection, schedule: Q04DX002 (ip), vehicle: saline) is reported as 1 of 3.

In the case of `CCc1ccccc1NC(=O)NCc1ccco1`, the survivor count [2] is reported as 0 of 6.

In the case of `CCCCCCCCCCCCCCCCCCSCCO`, the survivor count (dose: 200.0 mg/kg/injection, schedule: Q04DX003 (ip), vehicle: Klucel (hydroxypropylcellulose) (HPC)) is reported as 6 of 6.

In the case of `O=C(O)c1c(Br)c(Br)c(Br)c(Br)c1C(=O)Nc1ccccc1C(F)(F)F`, the survivor count [2] is reported as 0 of 6.

With `CN(C)[C@@H]1C(=O)C(C(=O)NCNc2nc3n[nH]nc3c(=O)[nH]2)=C(O)[C@@]2(O)C(=O)C3=C(O)c4c(O)cccc4[C@@](C)(O)[C@H]3C[C@@H]12` the T/C (dose: 400.0 mg/kg/injection, schedule: Q01DX009 (ip), vehicle: acetone) was 129 % of control.
